These are yes or no findings as the source states them, for the method shown. Binding seen in cells or lysates may run through a third protein. Binding calls can cover weak binding; strength is not graded here.

The text below walks through data of PMC10812620.

The target of assay [1] is T1, protein kinase C iota (PKCiota) (human (endogenous in KYSE510 and KYSE450)) (UniProt P41743).
T1 sequence: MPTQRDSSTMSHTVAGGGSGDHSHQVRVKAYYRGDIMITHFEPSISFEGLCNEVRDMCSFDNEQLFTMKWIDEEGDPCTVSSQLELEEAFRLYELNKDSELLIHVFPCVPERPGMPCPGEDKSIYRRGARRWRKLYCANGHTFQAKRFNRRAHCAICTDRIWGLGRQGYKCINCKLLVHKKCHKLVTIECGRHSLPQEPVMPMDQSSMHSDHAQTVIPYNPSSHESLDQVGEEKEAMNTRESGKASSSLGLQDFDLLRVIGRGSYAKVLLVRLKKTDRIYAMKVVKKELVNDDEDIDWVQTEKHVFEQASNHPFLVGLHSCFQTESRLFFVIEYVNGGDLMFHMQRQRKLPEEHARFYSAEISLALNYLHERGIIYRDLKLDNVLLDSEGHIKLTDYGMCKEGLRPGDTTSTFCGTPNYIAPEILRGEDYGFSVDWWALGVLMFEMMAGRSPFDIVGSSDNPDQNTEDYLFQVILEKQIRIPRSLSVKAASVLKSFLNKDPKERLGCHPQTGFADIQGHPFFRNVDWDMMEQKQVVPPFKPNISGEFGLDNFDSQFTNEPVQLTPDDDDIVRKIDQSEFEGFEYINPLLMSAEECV
Briefly: co-IP; endogenous proteins; KYSE510 and KYSE450 cells lysed in non-denaturing IP lysis buffer, 1 h at 4 °C; pre-cleared with protein G-agarose; immunoprecipitation with rabbit anti-PKCiota (Proteintech 13883-1-AP) or rabbit anti-GPX4 (Abcam ab125066) antibody; Western blot.

Assay [2] addresses T1, protein kinase C iota (PKCiota) (human (endogenous in KYSE510 and KYSE450)). Briefly: proximity ligation; Duolink In situ Red kit on fixed (4% paraformaldehyde), permeabilised cells; anti-GPX4 (Abcam ab125066) and anti-PKCiota (BD Biosciences 610175) antibodies overnight at 4 °C; confocal microscopy.

As for Glutathione peroxidase 4 (GPX4), the binding result in assay [1] and in assay [2] was “binds” in each case.
